Experimental data from patent EP4688832A1.
Results are given in words; binding and its absence hold for the method and conditions named. Some results given as binding are weak or reduced against the parent protein; the word gives no strength.

By UniProt entry, the sequences of proteins in these tests, tags left out. Where a name states a change or a piece, a line headed by the entry shows the natural chain unless it says otherwise.
UniProt P07766: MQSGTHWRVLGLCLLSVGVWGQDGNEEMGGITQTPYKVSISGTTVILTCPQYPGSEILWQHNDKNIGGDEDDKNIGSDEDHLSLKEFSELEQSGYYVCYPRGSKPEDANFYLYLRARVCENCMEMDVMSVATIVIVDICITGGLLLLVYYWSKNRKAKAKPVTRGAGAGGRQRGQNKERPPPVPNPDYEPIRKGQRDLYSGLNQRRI
UniProt P09693: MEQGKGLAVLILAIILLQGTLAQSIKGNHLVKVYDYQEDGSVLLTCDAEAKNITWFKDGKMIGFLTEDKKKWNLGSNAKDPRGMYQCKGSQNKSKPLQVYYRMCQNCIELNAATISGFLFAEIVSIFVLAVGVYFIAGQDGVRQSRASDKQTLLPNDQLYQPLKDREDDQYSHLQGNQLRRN
UniProt P04234: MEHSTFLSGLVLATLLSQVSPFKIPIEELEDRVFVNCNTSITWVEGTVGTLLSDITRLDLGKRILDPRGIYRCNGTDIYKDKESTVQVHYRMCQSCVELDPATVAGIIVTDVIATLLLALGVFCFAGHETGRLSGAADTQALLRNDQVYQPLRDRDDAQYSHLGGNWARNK
UniProt P20963: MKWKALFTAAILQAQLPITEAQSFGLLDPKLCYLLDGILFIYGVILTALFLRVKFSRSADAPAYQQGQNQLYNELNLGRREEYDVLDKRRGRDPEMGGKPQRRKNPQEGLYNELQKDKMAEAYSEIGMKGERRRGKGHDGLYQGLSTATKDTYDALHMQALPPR
UniProt Q95LI5: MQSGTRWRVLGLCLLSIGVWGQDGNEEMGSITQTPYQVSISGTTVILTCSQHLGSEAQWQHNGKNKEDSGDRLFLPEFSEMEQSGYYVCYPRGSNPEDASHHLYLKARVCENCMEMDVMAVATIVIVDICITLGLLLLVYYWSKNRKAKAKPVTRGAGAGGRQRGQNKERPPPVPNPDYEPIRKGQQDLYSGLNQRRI
UniProt Q95LI7: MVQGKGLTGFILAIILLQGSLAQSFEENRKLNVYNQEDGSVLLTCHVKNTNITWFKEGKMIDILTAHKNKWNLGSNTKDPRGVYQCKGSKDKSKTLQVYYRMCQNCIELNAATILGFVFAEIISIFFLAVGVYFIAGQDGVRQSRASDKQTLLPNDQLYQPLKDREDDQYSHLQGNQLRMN
UniProt Q95LI8: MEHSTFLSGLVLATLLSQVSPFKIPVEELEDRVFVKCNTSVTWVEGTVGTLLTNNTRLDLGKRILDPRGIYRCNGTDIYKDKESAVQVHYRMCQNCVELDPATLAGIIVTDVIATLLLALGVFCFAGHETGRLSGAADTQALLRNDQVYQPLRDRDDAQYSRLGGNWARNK

Experiments:
human CD3 (human) [1] = target: T1, human CD3 (human) (UniProt P07766+P09693+P04234+P20963); assay: FACS on Jurkat cells
[2] = target: cynomolgus CD3 (cynomolgus) (UniProt Q95LI5+Q95LI7+Q95LI8); assay: FACS on cynomolgus PBMC
human CD3 (human) [3] = target: T1, human CD3 (human); assay: FACS on human primary T cells

binding (human CD3 (human) [1]): binds | binding [2]: binds | binding (human CD3 (human) [3]): binds
B1: 39B12G6 chimeric anti-human CD3 monoclonal antibody (antibody, human IgG1, N297G, V domains shown)
VH: QVQLQQSGPELVKPGASVRISCKASGYTFTTSYIHFVRQRPGQGLEWIGWISPGDVNTKYSEKFKGRATLTADKSSTTAYMQLSSLTSEDSAVYFCTRDYGYYFDYWGQGTTLTVSS
VL: DIVMSQSPSSLAVSAGEKVTMSCKSSQSLLNSRTRKNYLAWYQKKPGQSPKLLIYWASTRESGVPDRFTGSGSGTDFTLTISSVQAEDLAVYYCKQSFILRTFGGGTKLEIKA
